PubChem BioAssay AID504764 | Drosophila RNAi Screening Center – 2011
Screen: 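Genes whose knock-down alters Notch-dependent transcription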 (primary screen). System: Drosophila Kc167 cells. Reagent: long dsRNA against Drosophila genes. Time to read-out: about 5 days (4 days dsRNA, then 24 h after transfection). Challenge: transfection of constitutively active membrane-tethered Notch lacking the extracellular domain, read 24 h later. Measured: 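Firefly luciferase from an E(spl)m3 reporter with active Notch, plus control-promoter and uninduced reporter wells for normalisation; unnormalised counts, duplicate wells a and b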. Direction: induced reporter light, run 1, well a and induced reporter light, run 1, well b: higher = more light from the Notch target reporter with active Notch; control promoter light, run 1, well a and control promoter light, run 1, well b: higher = more light from the viral control promoter (cell number, transfection, viability); uninduced reporter light, run 1, well a: higher = more light from the Notch target reporter without active Notch. Active means: 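Hit if the duplicate-averaged log2 ratio of induced to control-promoter light gives a plate-wise z beyond ±2, or induced to uninduced beyond ±1.8; weak-control or discordant-duplicate wells dropped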. Meaning of the calls: active = modifier hit (raised or lowered Notch signal); inactive = not a hit.
The deposit covers about 22,000 reagents; below is a random part of those that have a named target and a result. In the full data, 403 (1.9%) were called active. 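Unnormalised raw counts per well; ratio z-scores behind the hit calls and whether each hit raises or lowers signal are not deposited.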 Not given: the amount of reagent.

| gene knocked down | amplicon | induced reporter light, run 1, well a | induced reporter light, run 1, well b | control promoter light, run 1, well a | control promoter light, run 1, well b | uninduced reporter light, run 1, well a | Outcome |
| --- | --- | --- | --- | --- | --- | --- | --- |
| CG4629 | DRSC00659 | 1.07e5 | 1.30e5 | 1.09e5 | 62965 | 8710 | inactive |
| CG9512 | DRSC20189 | 1.84e5 | 2.07e5 | 2.99e5 | 3.04e5 | 14545 | inactive |
| CG14613 | DRSC20625 | 1.18e5 | 88520 | 1.07e5 | 45160 | 8505 | inactive |
| Inx3 | DRSC14857 | 1.91e5 | 1.77e5 | 2.52e5 | 2.45e5 | 14785 | inactive |
| CG3355 | DRSC00598 | 1.33e5 | 1.10e5 | 1.33e5 | 98435 | 5840 | inactive |
| Dhc16F | DRSC20242 | 66850 | 44165 | 68980 | 67680 | 10705 | inactive |
| CG32243 | DRSC08105 | 2.20e5 | 1.87e5 | 1.95e5 | 1.97e5 | 13320 | inactive |
| Eip63E | DRSC08658 | 1.14e5 | 1.08e5 | 91400 | 25695 | 11965 | inactive |
| Spn31A | DRSC02780 | 1.14e5 | 1.21e5 | 72030 | 87200 | 15770 | inactive |
| CG15211 | DRSC19657 | 1.30e5 | 1.30e5 | 2.06e5 | 1.87e5 | 10965 | inactive |
| RpL21 | DRSC03704 | 3850 | 5080 | 4405 | 5150 | 338 | inactive |
| Acp53Ea | DRSC05916 | 1.23e5 | 93520 | 1.36e5 | 1.61e5 | 10485 | inactive |
| CG5466 | DRSC15808 | 10635 | 9532 | 12520 | 10550 | 2220 | inactive |
| CG4806 | DRSC04491 | 1.24e5 | 1.12e5 | 1.25e5 | 1.22e5 | 6838 | inactive |
| pros | DRSC12856 | 1.76e5 | 1.44e5 | 1.79e5 | 2.14e5 | 12270 | inactive |
| pros | DRSC17032 | 1.32e5 | 1.36e5 | 83580 | 81480 | 8670 | inactive |
| pros | DRSC22612 | – | – | – | – | – | inactive |
| CG10555 | DRSC17748 | 64755 | 76215 | 1.28e5 | 1.28e5 | 8865 | inactive |
| Idgf3 | DRSC03351 | 2.08e5 | 2.43e5 | 1.69e5 | 2.01e5 | 15480 | inactive |
| CG9593 | DRSC16508 | 2.33e5 | 2.34e5 | 2.22e5 | 2.34e5 | 17230 | inactive |
| Cpr49Ad | DRSC07284 | 91980 | 85020 | 1.25e5 | 1.24e5 | 10000 | inactive |
| Npc2c | DRSC15523 | 65815 | 68335 | 52720 | 55940 | 2980 | inactive |
| beat-Ia | DRSC03489 | 1.19e5 | 1.48e5 | 1.85e5 | 1.91e5 | 10720 | inactive |
| Gpdh1 | DRSC03336 | 1.60e5 | 1.94e5 | 1.71e5 | 1.98e5 | 14885 | inactive |
| ND-49 | DRSC17151 | 31835 | 31220 | 34805 | 37035 | 2320 | inactive |
| UBL3 | DRSC20298 | 44475 | 46390 | 41065 | 35620 | 10065 | inactive |
| Tsp42Eo | DRSC06184 | 1.49e5 | 1.40e5 | 2.24e5 | 1.91e5 | 11155 | inactive |
| O-fut2 | DRSC18608 | 1.66e5 | 1.72e5 | 2.32e5 | 2.09e5 | 11195 | inactive |
| CG33340 | DRSC14615 | 1.87e5 | 1.44e5 | 2.30e5 | 2.57e5 | 17140 | inactive |
| Roc2 | DRSC07313 | 1.18e5 | 1.18e5 | 1.48e5 | 1.37e5 | 9655 | inactive |
| CG6891 | DRSC20016 | 1.66e5 | 1.44e5 | 1.46e5 | 1.28e5 | 11170 | inactive |
| CG6785 | DRSC02993 | 1.91e5 | 1.81e5 | 1.05e5 | 1.34e5 | 13950 | inactive |
| Cpr47Eb | DRSC06345 | 1.12e5 | 1.38e5 | 1.30e5 | 1.28e5 | 10235 | inactive |
| sturkopf | DRSC08637 | 92450 | 98905 | 1.75e5 | 1.86e5 | 9325 | inactive |
| Sara | DRSC04653 | 60620 | 47765 | 49100 | 67975 | 3675 | inactive |
| CG32198 | DRSC09553 | 1.50e5 | 1.51e5 | 1.83e5 | 1.62e5 | 16525 | inactive |
| whe | DRSC20537 | 96045 | 1.02e5 | 85750 | 1.21e5 | 10455 | inactive |
| CG31251 | DRSC16247 | 1.63e5 | 1.68e5 | 2.22e5 | 2.13e5 | 11085 | inactive |
| Idi | DRSC15918 | 1.90e5 | 1.65e5 | 2.22e5 | 2.17e5 | 16480 | inactive |
| JTBR | DRSC08667 | 1.23e5 | 1.04e5 | 2.16e5 | 2.15e5 | 8750 | inactive |
| Ptx1 | DRSC16804 | 1.14e5 | 1.43e5 | 1.30e5 | 1.24e5 | 8305 | inactive |
| FASN3 | DRSC20882 | 98580 | 1.00e5 | 92620 | 1.18e5 | 9120 | inactive |
| GC | DRSC08396 | 1.09e5 | 95685 | 1.43e5 | 1.72e5 | 7060 | inactive |
| CheA46a | DRSC05184 | 62605 | 63575 | 69420 | 1.05e5 | 3555 | inactive |
| ebi | DRSC00816 | 1.96e5 | 2.34e5 | 2.10e5 | 2.14e5 | 21335 | inactive |
| Inos | DRSC07655 | 2.34e5 | 2.03e5 | 2.87e5 | 2.62e5 | 17635 | inactive |
| CG14395 | DRSC14852 | 88370 | 88090 | 86425 | 78755 | 7155 | inactive |
| mtt | DRSC05106 | 31060 | 48600 | 39740 | 39230 | 3265 | inactive |
| mtt | DRSC05107 | 1.12e5 | 1.09e5 | 1.17e5 | 1.06e5 | 6325 | inactive |
| mtt | DRSC06753 | 1.82e5 | 1.71e5 | 2.21e5 | 2.33e5 | 17830 | inactive |
| mtt | DRSC07235 | 2.06e5 | 1.67e5 | 2.62e5 | 2.01e5 | 15895 | inactive |

Single entries from the list.
Value of sturkopf [DRSC08637] under “control promoter light, run 1, well a”: 1.75e5
Value for ebi [DRSC00816] in “control promoter light, run 1, well b”: 2.14e5
CG9512 [DRSC20189], Outcome: inactive
For “control promoter light, run 1, well a”, whe [DRSC20537] reads 85750
Result of UBL3 [DRSC20298] under “induced reporter light, run 1, well b”: 46390
